Measurements: patent US11655492B2, “Activated formylglycine-generating enzymes and methods of producing and using the same” (R.P. Scherer Technologies, LLC, priority 2015, dated 2023)
At least one structure is not confirmed: it was looked up by name or label, or the drawing left a doubt.

Amino acid sequences for entries named in this document (tags omitted). Residues count along the entry.
UniProt Q8NBK3, 34-374: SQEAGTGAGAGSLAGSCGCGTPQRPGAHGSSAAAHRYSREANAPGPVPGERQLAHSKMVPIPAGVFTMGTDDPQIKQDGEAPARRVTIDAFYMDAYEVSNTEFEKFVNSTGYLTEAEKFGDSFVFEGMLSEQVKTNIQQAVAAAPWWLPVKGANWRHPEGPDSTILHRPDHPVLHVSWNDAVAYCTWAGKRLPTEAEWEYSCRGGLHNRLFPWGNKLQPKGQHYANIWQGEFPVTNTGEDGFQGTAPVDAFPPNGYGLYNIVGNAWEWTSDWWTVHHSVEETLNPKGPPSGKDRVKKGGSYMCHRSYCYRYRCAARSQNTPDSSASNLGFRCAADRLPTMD

How the values were obtained:
ATP production = ATP production dose response (Cell titerglo, 4 hour treatment); type: cell-based
human FGE = human FGE (Homo sapiens, UniProt Q8NBK3); experiment: Effect of stimulators and inhibitors of oxidative phosphorylation on conversion; type: cell-based; conditions: DCA 0-50,000 μM; rotenone 0-15,000 nM with Cu^2+

Which ATP production (ATP production) does the source give for O=C(O)C(Cl)Cl [DCA, Dichloroacetate] here?
Its ATP production is “affected ATP production as expected”.

And the effect on conversion (human FGE)?
Its effect on conversion is “no effect on conversion”.
